From article PMC7338349
No constants are given. Whether binding was seen depends on the method and setting. Binding seen in cells or lysates may run through a third protein. Some entries that bind do so weakly or less than the wild type. For part of these data: Where a sequence is shown, tags or fusion partners need not be part of it.

Amino acid sequences for entries named in this document (tags omitted).
UniProt Q86WV6: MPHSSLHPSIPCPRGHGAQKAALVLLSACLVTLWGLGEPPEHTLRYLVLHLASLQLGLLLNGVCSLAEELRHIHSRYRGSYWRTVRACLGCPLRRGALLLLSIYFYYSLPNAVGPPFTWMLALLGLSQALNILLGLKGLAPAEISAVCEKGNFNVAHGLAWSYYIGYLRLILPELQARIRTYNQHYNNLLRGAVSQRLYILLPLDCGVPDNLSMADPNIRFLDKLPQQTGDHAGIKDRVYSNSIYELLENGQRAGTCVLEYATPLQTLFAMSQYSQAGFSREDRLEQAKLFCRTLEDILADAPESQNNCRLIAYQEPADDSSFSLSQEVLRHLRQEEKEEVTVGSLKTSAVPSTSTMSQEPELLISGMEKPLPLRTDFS

Assays:
[1] = target: Myc-STING, expressed in HEK293T cells (UniProt Q86WV6); experiment: co-IP; HEK293T co-transfected with Flag-Gal-9 (or Flag-EV) and Myc-STING for 24 h; extracts precipitated with anti-Myc-beads, blot with anti-Flag
[2] = target: endogenous STING of C666-1 cells (human (endogenous in C666-1)) (UniProt Q86WV6); experiment: co-IP; extracts of wild type C666-1 cells; precipitated with anti-STING antibody, blot with anti-Gal-9; both endogenous
[3] = target: Flag-Gal-9, stably expressed in TW03 cells (UniProt O00182); experiment: co-IP; lysates of TW03 cells stably expressing Flag-EV or Flag-Gal-9; precipitated with anti-Flag-beads, blot with anti-STING
[4] = target: Flag-STING-FL (full length), expressed in HEK293T cells (UniProt Q86WV6); experiment: co-IP; HEK293T co-transfected for 24 h, then MG132 (10 uM) for 6 h; extracts precipitated with anti-Flag-beads, blot with anti-HA
[5] = target: Flag-STING-FL (full length), expressed in HEK293T cells (UniProt Q86WV6); experiment: co-IP; HEK293T transfected with Flag-STING and HA-TRIM29, then increasing amounts of Myc-Gal-9 for 24 h; precipitated with anti-Flag-beads, blot with anti-HA
[6] = target: Flag-STING, expressed in C666-1 cells (UniProt Q86WV6); experiment: co-IP; C666-1 cells with shRNA against Gal-9 or control vector for 24 h, then HA-TRIM29 and Flag-STING for 24 h; precipitated with anti-Flag-beads, blot with indicated antibodies

## Flag-Gal-9 (galectin-9, full length), expressed in HEK293T cells (from UniProt O00182-1 1-355)
[1]
  binding: binds

## endogenous Gal-9 of C666-1 cells (from UniProt O00182 1-355)
[2]
  binding: binds

## endogenous STING of TW03 cells (from UniProt Q86WV6 1-379)
[3]
  binding: binds

## HA-Gal-9, expressed in HEK293T cells (from UniProt O00182 1-355)
[4]
  binding: binds

B1: HA-TRIM29, expressed in HEK293T cells (enzyme, UniProt Q14134 1-588)
chain: MEAADASRSNGSSPEARDARSPSGPSGSLENGTKADGKDAKTTNGHGGEAAEGKSLGSALKPGEGRSALFAGNEWRRPIIQFVESGDDKNSNYFSMDSMEGKRSPYAGLQLGAAKKPPVTFAEKGELRKSIFSESRKPTVSIMEPGETRRNSYPRADTGLFSRSKSGSEEVLCDSCIGNKQKAVKSCLVCQASFCELHLKPHLEGAAFRDHQLLEPIRDFEARKCPVHGKTMELFCQTDQTCICYLCMFQEHKNHSTVTVEEAKAEKETELSLQKEQLQLKIIEIEDEAEKWQKEKDRIKSFTTNEKAILEQNFRDLVRDLEKQKEEVRAALEQREQDAVDQVKVIMDALDERAKVLHEDKQTREQLHSISDSVLFLQEFGALMSNYSLPPPLPTYHVLLEGEGLGQSLGNFKDDLLNVCMRHVEKMCKADLSRNFIERNHMENGGDHRYVNNYTNSFGGEWSAPDTMKRYSMYLTPKGGVRTSYQPSSPGRFTKETTQKNFNNLYGTKGNYTSRVWEYSSSIQNSDNDLPVVQGSSSFSLKGYPSLMRSQSPKAQPQTWKSGKQTMLSHYRPFYVNKGNGIGSNEAP
[5]
  binding: binds

B2: HA-TRIM29, expressed in C666-1 cells (enzyme, UniProt Q14134 1-588)
chain: MEAADASRSNGSSPEARDARSPSGPSGSLENGTKADGKDAKTTNGHGGEAAEGKSLGSALKPGEGRSALFAGNEWRRPIIQFVESGDDKNSNYFSMDSMEGKRSPYAGLQLGAAKKPPVTFAEKGELRKSIFSESRKPTVSIMEPGETRRNSYPRADTGLFSRSKSGSEEVLCDSCIGNKQKAVKSCLVCQASFCELHLKPHLEGAAFRDHQLLEPIRDFEARKCPVHGKTMELFCQTDQTCICYLCMFQEHKNHSTVTVEEAKAEKETELSLQKEQLQLKIIEIEDEAEKWQKEKDRIKSFTTNEKAILEQNFRDLVRDLEKQKEEVRAALEQREQDAVDQVKVIMDALDERAKVLHEDKQTREQLHSISDSVLFLQEFGALMSNYSLPPPLPTYHVLLEGEGLGQSLGNFKDDLLNVCMRHVEKMCKADLSRNFIERNHMENGGDHRYVNNYTNSFGGEWSAPDTMKRYSMYLTPKGGVRTSYQPSSPGRFTKETTQKNFNNLYGTKGNYTSRVWEYSSSIQNSDNDLPVVQGSSSFSLKGYPSLMRSQSPKAQPQTWKSGKQTMLSHYRPFYVNKGNGIGSNEAP
[6]
  binding: binds
